The record followed here is publication PMC11876641, “Ephrin A1 functions as a ligand of EGFR to promote EMT and metastasis in gastric cancer” (The EMBO Journal, 2025).

Sequences of proteins named here, by UniProt entry; tags and fusion partners are left off. Residues count along the entry.
UniProt P20827, residues 19-182: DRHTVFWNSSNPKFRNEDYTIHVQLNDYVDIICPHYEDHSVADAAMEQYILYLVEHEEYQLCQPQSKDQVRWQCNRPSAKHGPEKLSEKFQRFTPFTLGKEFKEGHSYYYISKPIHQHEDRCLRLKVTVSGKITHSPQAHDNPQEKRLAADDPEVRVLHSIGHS

No constants are given. Whether binding was seen depends on the method and setting. In cells and extracts the contact can be indirect. Binding can be weak; no strength is given.

One experiment deals with EGFR-△ECD-Myc (human) (UniProt P00533). Nature of the experiment: co-IP; MKN45 cells transfected with EGFR-Myc wild type or deletion constructs; anti-Myc beads; western blot for Ephrin A1. On the technique in general: In western blotting, separated proteins are transferred to a membrane and probed.
Another experiment deals with EGFR-△D1 + 3-Myc (human) (UniProt P00533). Described as above.

With “Ephrin A1 (in MKN45 cells) (from UniProt P20827 19-182) (ligand)”, the binding result with EGFR-△ECD-Myc (human) and in the experiment with EGFR-△D1 + 3-Myc (human) was “binds weakly” in each case.
